# Test results: the supplement of paper PMC8728848
# Some of the results follow.
# B1: OS9 (Arabidopsis thaliana) (protein)
# chain: MRGSHHHHHHGMASMTGGQQMGRDLYDDDDKSRLQIFPAHLVGTFSRNNREPKYKIEFLPEDSPFHPGDNLESMVMLDKHGNRFLCYLPKEEKATSGWTSSQQNISTVMMETQQLVKLKTPDELLQPLSEKCLFRQEGWWSYEFCHQKYVRQLHVEDENKIVQEFFLGTFDPEATAAFNQTVSDASTDASQRYHSHVYTNGTTCDLTGSPREVEVRFVCAETRAMVTSITELSTCKYALTVQCPTLCKHPLFQLEKPVSHTIHCNAIPVEEDATRNKEEQAVDESPKMIADS
# Molecular target: Neu5Gc(b2-6)Gal(b1-4)GlcNAc
# Test: glycan array binding signal (z-score within array); higher = stronger binding
# Conditions: glycan notation: IUPAC condensed, linker removed
# Outline: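 Columns mapping to the same glycan were averaged after glycan names were converted to IUPAC-condensed notation. The data come from 3228 arrays in the Consortium for Functional Glycomics database, limited to those with an available protein sequence. Binding is reported as a within-array Z-score averaged across arrays of one protein sequence and across linkers.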
binder,measurement,value
B1,glycan array binding signal (z-score),0.402
